Results: patent US20260256879A1, “COMBINATION THERAPY WITH MEK INHIBITORS FOR THE TREATMENT OF CANCER” (FUNDACIÓ PRIVADA INSTITUT D'INVESTIGACIÓ ONCOLÒGICA DE VALL …, priority 2023, published 2026)
At least one compound was matched to its structure with a doubt left.

System: SkMel28 cells
Test: AlamarBlue cell viability, 5 days of treatment, alone or in combination; synergy by SynergyFinder 3.0 (ZIP)
Type: cell-based, human
Conditions: SkMel28, 5 days, FIG. 1A
Method: Omomyc in Combination with MEK Inhibitors Acts Synergistically in Decreasing the Viability of Melanoma Cancer Cells Two human melanoma cell lines with mutations in BRAF (BRAF^V600E) (SkMel28 and SkMel37) were used. Cells were plated in 96 well plates and treated on the following day with increasing concentrations of Trametinib and Omomyc, alone or in combination. After 5 days of treatment, media was removed and AlamarBlue™ Cell Viability Reagent was added to each well, incubated for 3 hours until metabolized, and fluorescence was read with a microplate reader using an excitation between 530-560 and an emission at 590 nm.
Synergy was evaluated using SynergyFinder 3.0 web application derived from Ianevsky A et al. Nucleic Acids Res. 2022; 50(W1):W739-W743.
Synergy scores can be interpreted as the average excess response due to drug interactions. Synergy scores close to 0 give limited confidence in synergy or antagonism. So, when the synergy scores are: less than −10, the interaction between two drugs is likely to be antagonistic. From −10 to 10, the interaction between two drugs is likely to be additive. Greater than 10, the interaction between two drugs is likely to be synergistic.

CC(=O)Nc1cccc(-n2c(=O)n(C3CC3)c(=O)c3c(Nc4ccc(I)cc4F)n(C)c(=O)c(C)c32)c1 [Trametinib]
effect of single agent on viability of the cells: reduces the viability
